Data from PubChem BioAssay AID1347426 (Functional Genomics Laboratory (NCATS/FGL), 2020).
Hit rate of the full screen: of about 31,000 sequences, about 1,400 (4.5%) were called active.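 The calls were made as follows: active = median seed-adjusted z-score above 1 or below -1; inactive = the rest.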 Some of the results follow.

assay: Novel Modifiers of Survival Motor Neuron (SMN) Protein: Gene Identification via Genome-wide siRNA Screen; details: HEK293T SMN2-luciferase reporter, siRNA knockdown, 72 h; actives lie on both sides;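 also: luminescence tracks full-length SMN protein made from the SMN2 reporter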
Method in brief: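 HEK293T cells stably expressing an SMN2 splicing/cDNA-luciferase reporter were reverse-transfected with a druggable-genome siRNA library and read by luminescence at 72 hours; hits defined by MAD score above 1.0 or below -1.0.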

Which median seed-adjusted z-score does the source give for GUGCAUGUAUGAAGCCGAATT against NDUFB10 here?
Its median seed-adjusted z-score is inactive: -0.39.

For GAUGGAAACAUUGAAUAUATT against GTPBP2, which median seed-adjusted z-score is on record?
Its median seed-adjusted z-score is inactive: -0.166.

With GAACUGUGCCGACUCCACATT against ATP6V0E1 as the sequence, how does the median seed-adjusted z-score read?
Its median seed-adjusted z-score is inactive: -0.0658.

Which median seed-adjusted z-score does the source give for CCUGCAGAAUUAUAUCUUATT against TXNDC13 here?
The median seed-adjusted z-score was inactive: 0.365.

With GCCCAUCACAAUCCAGGUATT against PLXND1 as the sequence, how does the median seed-adjusted z-score read?
The median seed-adjusted z-score was inactive: -0.064.

For GGAUCAUUCGAAACGAGCATT against CDC25B, which median seed-adjusted z-score is on record?
The median seed-adjusted z-score was inactive: -0.0158.

Which median seed-adjusted z-score does the source give for CGCCGAAUCAUGUCGAUGATT against NKX2-1 here?
Its median seed-adjusted z-score is inactive: 0.185.

With GAGUAUACUCUACAGCUAATT against IL12RB2 as the sequence, how does the median seed-adjusted z-score read?
Its median seed-adjusted z-score is inactive: 0.368.

With CAAUGAUAUUGGUAGAAAUTT against PKIB as the sequence, how does the median seed-adjusted z-score read?
The median seed-adjusted z-score was inactive: 0.147.

With CAGCCUAUCUUUGUCCAGATT against COX10 as the sequence, how does the median seed-adjusted z-score read?
The median seed-adjusted z-score was inactive: 0.339.

For ACGAGUACAUCAACGAGUATT against ABCA2, which median seed-adjusted z-score is on record?
Its median seed-adjusted z-score is active: -1.18.

Which median seed-adjusted z-score does the source give for CAAUCACGGUUGUGGGUGATT against PRPSAP2 here?
The median seed-adjusted z-score was inactive: 0.329.

For GAAAAAGGGUUUUACUACATT against TNFSF10, which median seed-adjusted z-score is on record?
The median seed-adjusted z-score was inactive: 0.

With GGUAAUCUCUGGGAUGUGATT against ESPL1 as the sequence, how does the median seed-adjusted z-score read?
The median seed-adjusted z-score was inactive: 0.871.

For CCCGAACCCUGGUUCUUCATT against LCK, which median seed-adjusted z-score is on record?
The median seed-adjusted z-score was inactive: 0.676.

For AGGCAUUCGUCCCUACAAATT against OVOL2, which median seed-adjusted z-score is on record?
Its median seed-adjusted z-score is inactive: 0.654.

For CCAGAGAGAUGGAUUGUCATT against ARNT2, which median seed-adjusted z-score is on record?
Its median seed-adjusted z-score is inactive: -0.244.

For GGGACAAGUUCGUCAUCUUTT against CRYAA, which median seed-adjusted z-score is on record?
The median seed-adjusted z-score was active: -1.03.

With GGAUCACGCUAGCUGUCUATT against OXTR as the sequence, how does the median seed-adjusted z-score read?
The median seed-adjusted z-score was inactive: -0.557.

With CAGGACCAAUGGUCAAGAATT against CARD11 as the sequence, how does the median seed-adjusted z-score read?
Its median seed-adjusted z-score is inactive: 0.22.

For GAAAGGAUUUGAUAAUGCATT against FGD4, which median seed-adjusted z-score is on record?
The median seed-adjusted z-score was inactive: -0.0017.

With GCAUUACAGUCUGAAUUGATT against PTPDC1 as the sequence, how does the median seed-adjusted z-score read?
Its median seed-adjusted z-score is inactive: -0.191.

With AAGCAGUGAUGUCAACUUUTT against RNASE12 as the sequence, how does the median seed-adjusted z-score read?
Its median seed-adjusted z-score is inactive: -0.16.

With GCUCCAACGGCUGAUGAAATT against GPR146 as the sequence, how does the median seed-adjusted z-score read?
The median seed-adjusted z-score was inactive: 0.405.

Which median seed-adjusted z-score does the source give for CAAGACUGCUGAUGAGUUUTT against HSD17B3 here?
Its median seed-adjusted z-score is inactive: 0.734.

With CAUUGUCUAUCAUCGCAAATT against NEB as the sequence, how does the median seed-adjusted z-score read?
The median seed-adjusted z-score was inactive: 0.0485.

With GCCCGACUCUCUAAUGGAATT against PRKD3 as the sequence, how does the median seed-adjusted z-score read?
The median seed-adjusted z-score was inactive: -0.906.

With GAAAAGGUUUUGUAGAGUUTT against PSPC1 as the sequence, how does the median seed-adjusted z-score read?
Its median seed-adjusted z-score is inactive: 0.0612.

Which median seed-adjusted z-score does the source give for GUUUAUUUCGUACACUAAATT against KTI12 here?
The median seed-adjusted z-score was inactive: 0.0814.

For CAGCCUUACCUGAAGGACATT against PHYHIP, which median seed-adjusted z-score is on record?
The median seed-adjusted z-score was inactive: 0.18.

Which median seed-adjusted z-score does the source give for ACGUAGGUGCUUUAAGGAUTT against SHOX2 here?
Its median seed-adjusted z-score is inactive: -0.238.

With GUUCGAGUCUUACUGGUCATT against ZNF790 as the sequence, how does the median seed-adjusted z-score read?
Its median seed-adjusted z-score is inactive: 0.245.

Which median seed-adjusted z-score does the source give for GACGAUUACUUCACAAAGATT against KCNJ16 here?
Its median seed-adjusted z-score is inactive: -0.705.

For AAAGAGAACUGGUAUUCAATT against EIF1AX, which median seed-adjusted z-score is on record?
Its median seed-adjusted z-score is inactive: 0.878.

With CGGUGAAUUUCAUGCCGAATT against SYNM as the sequence, how does the median seed-adjusted z-score read?
The median seed-adjusted z-score was inactive: 0.104.

For GCAUCAUGGAUGGAUCCGATT against ENTPD5, which median seed-adjusted z-score is on record?
The median seed-adjusted z-score was inactive: -0.355.

For CUAUGGACGCAAUCAUUUATT against ATOH7, which median seed-adjusted z-score is on record?
The median seed-adjusted z-score was inactive: 0.135.

Which median seed-adjusted z-score does the source give for GGACUUCUAUAACGUGAGATT against AMPD3 here?
The median seed-adjusted z-score was inactive: -0.0865.

For AAAUAAUGGUCAAAAGAAUTT against FOXD1, which median seed-adjusted z-score is on record?
Its median seed-adjusted z-score is inactive: -0.659.

With GGACAUACCUGAAGACUUUTT against SLC16A6 as the sequence, how does the median seed-adjusted z-score read?
The median seed-adjusted z-score was inactive: 0.195.

With GCAGCUCCGAAUUCAGGAATT against TFE3 as the sequence, how does the median seed-adjusted z-score read?
The median seed-adjusted z-score was inactive: -0.0442.

With ACAGAGAGCUGUUACUAGATT against GPLD1 as the sequence, how does the median seed-adjusted z-score read?
Its median seed-adjusted z-score is inactive: 0.0152.

With GCUCAACUCUUAUACGACATT against ZNF582 as the sequence, how does the median seed-adjusted z-score read?
Its median seed-adjusted z-score is inactive: -0.421.

With GGAAAGGACGCAUGGAAUATT against CBX8 as the sequence, how does the median seed-adjusted z-score read?
The median seed-adjusted z-score was inactive: -0.207.

For GUCUCCGAUCUGUCCCUGATT against SCRT2, which median seed-adjusted z-score is on record?
The median seed-adjusted z-score was inactive: 0.404.

With GCAGCUUCACCUAUCCGAUTT against KLF4 as the sequence, how does the median seed-adjusted z-score read?
The median seed-adjusted z-score was inactive: 0.883.

With GGUGUUUAAUGAUGUAGAUTT against UBA3 as the sequence, how does the median seed-adjusted z-score read?
Its median seed-adjusted z-score is inactive: 0.605.

With CAACAGCAGUGAAUUGAAATT against BMP6 as the sequence, how does the median seed-adjusted z-score read?
The median seed-adjusted z-score was inactive: 0.301.

For CCUGAGGACGGGUCAGAUATT against ZNF517, which median seed-adjusted z-score is on record?
Its median seed-adjusted z-score is inactive: 0.0158.

Which median seed-adjusted z-score does the source give for GGUCGAGGACUAUUUCUUUTT against NOS2A here?
The median seed-adjusted z-score was inactive: 0.419.

For GAGUGAACAUUCUCAUAAATT against CUX2, which median seed-adjusted z-score is on record?
The median seed-adjusted z-score was inactive: 0.

For CUGCUUAUGUCGUAUCUAATT against PGAP1, which median seed-adjusted z-score is on record?
The median seed-adjusted z-score was inactive: -0.272.

Which median seed-adjusted z-score does the source give for GGAGAAGAACCAUCAGAAUTT against PGRMC2 here?
Its median seed-adjusted z-score is inactive: -0.223.
